According to publication PMC8665757:
These are yes or no findings as the source states them, for the method shown. Binding can be weak; no strength is given.

Chains of the proteins cited; added tags and fusions are not shown. Residues count along the entry.
UniProt P02768, residues 25-609: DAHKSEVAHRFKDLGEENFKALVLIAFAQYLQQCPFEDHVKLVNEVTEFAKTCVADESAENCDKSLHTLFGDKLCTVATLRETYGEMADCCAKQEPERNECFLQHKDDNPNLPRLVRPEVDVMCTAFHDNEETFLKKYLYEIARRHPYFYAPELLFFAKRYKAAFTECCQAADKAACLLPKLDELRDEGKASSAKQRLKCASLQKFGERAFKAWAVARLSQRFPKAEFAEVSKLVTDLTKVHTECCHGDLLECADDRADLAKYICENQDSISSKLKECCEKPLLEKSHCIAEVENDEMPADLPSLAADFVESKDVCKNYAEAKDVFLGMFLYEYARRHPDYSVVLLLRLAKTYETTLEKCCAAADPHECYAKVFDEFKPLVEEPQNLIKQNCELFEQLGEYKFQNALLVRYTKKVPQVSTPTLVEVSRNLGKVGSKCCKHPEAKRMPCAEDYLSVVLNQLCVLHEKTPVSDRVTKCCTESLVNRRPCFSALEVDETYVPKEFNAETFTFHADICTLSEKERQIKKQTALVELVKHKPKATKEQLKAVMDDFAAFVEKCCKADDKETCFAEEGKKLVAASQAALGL

Target: Streptococcus pyogenes M1 protein (Streptococcus pyogenes) (UniProt Q99XV0)
Test: cross-linking; chemical cross-linking with tandem MS (MS/MS) of samples from recombinant M1 protein and purified human plasma fibrinogen and albumin; cross-links (XLs) detected with the Cheetah-MS web server; both purified

“human plasma albumin (from UniProt P02768 25-609)” was tested, and the binding was “binds”.
